Measured values reported in patent EP1310557A1, “Design of bioactive peptides based on immunoglobulin structure” (priority 1990, dated 2003).
Part of at least one peptide drawing is inferred or uncertain, most often the ends. Where no end group is shown, it is not given here.

Legend:
HIV = assay: Infectivity assays with rabbit anti-peptide sera; assay type: in vivo
anti-B138 antibodies = assay: Reactivity of the peptide with sera of HIV-seropositive and seronegative subjects; assay type: binding, human
[…]-infected H9 cells = Immunization of mice: antisera binding to infected cells by flow cytometry; assay type: in vivo; conditions: subcutaneous immunization of mice
[1] = system: recombinant glycosylated gp120; assay: Immunization of rabbits: radiolabelled immunoprecipitation of gp120 by antisera; assay type: in vivo, HIV; conditions: radiolabelled immunoprecipitations

KQFINMWQEVGKAMYAPP [B138]
neutralizing antibodies elicited (HIV): could elicit neutralizing antibodies
HIV-infected individuals with levels of anti-B138 antibodies significantly different from HIV-seronegative individuals (anti-B138 antibodies; 1:32 dilutions of serum, p<0.003, an ARC patient): one
patients with significant levels of antibodies that bound B138 (anti-B138 antibodies; AIDS patients, sera 1:4 dilution, 2 of 20): 10%
patients with significant levels of antibodies that bound B138 (anti-B138 antibodies; ARC patients, sera 1:4 dilution, 7 of 21): Thirty-three
individuals generating levels of anti-B138 antibodies significantly different from HIV-seronegative controls (anti-B138 antibodies; HIV-seropositive, asymptomatic individuals, sera 1:4 dilution, 2 of 18, p<0.003): 11%
binding of mouse antisera to […]-infected H9 cells ([…]-infected H9 cells): preferentially bind
immunoprecipitation of recombinant glycosylated gp120 by rabbit antisera [1]: albeit weakly
